From the supplement of paper PMC10735217
The other results are listed elsewhere or left out. This data set is noisy: repeats of one test often differ as much as different tests do.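 Human kidney-derived cells stably carry a construct in which eight TEAD-binding elements drive luciferase, measured by luminescence in a drug-repurposing library screen. A hit is any compound whose signal exceeds the plate mean by more than five robust Z scores.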

Tested on: HEK293A TEAD-LUC reporter
Test: TEAD-luciferase reporter activity (YAP activation), robust Z score vs plate; higher = stronger YAP/TEAD activation
Settings: 24 h

SMILES	TEAD-luciferase reporter activity (compound concentration: 200 nM)	TEAD-luciferase reporter activity (compound concentration: 2 uM)	TEAD-luciferase reporter activity (compound concentration: 10 uM)
O=C(c1c(O)nc2cc(Cl)ccc2c1O)C1CC1	inactive: -2.58	inactive: 2.12	inactive: 1.88
CCN(CC)CCCNc1nccc2c(C)c3[nH]c4ccc(OC)cc4c3c(C)c12	inactive: 1.13	inactive: 4.57	inactive: 1.88
CC1(C)Oc2ccc(C#N)cc2[C@@H](N2CCCC2=O)[C@@H]1O [Cromakalim]	inactive: -1.29	inactive: 1.18	active: 6.36
CC(C)NC(=O)N(C(=O)[C@H]1CC[C@H]2[C@@H]3CC[C@H]4N(C)C(=O)CC[C@]4(C)[C@H]3CC[C@]12C)C(C)C	inactive: 0.498	inactive: -0.034	inactive: -0.369
C[C@H](NC(=O)Cc1ccccc1)C(=O)Nc1ccc(C2S/C(=N\c3cccc(F)c3)N(Cc3ccccc3)C2=O)cc1 (some centres not stated)	inactive: 2.34	inactive: -1.79	inactive: -1.43
CC(=O)NC1(c2ccccc2)CCN(CCC(CN(C)C(=O)c2ccccc2)c2ccc(Cl)c(Cl)c2)CC1 (configuration not stated)	inactive: 1.94	inactive: 0.409	inactive: -0.0915
CC1CC2[C@@H]3CC(F)C4=CC(=O)C=C[C@]4(C)C3(F)[C@@H](O)C[C@]2(C)C1(OC(=O)c1ccco1)C(=O)SCF (some centres not stated) [fluticasone furoate DPI]	–	inactive: 0.107	–
CC1CC2[C@@H]3CC(F)C4=CC(=O)C=C[C@]4(C)C3(F)[C@@H](O)C[C@]2(C)C1(OC(=O)c1ccco1)C(=O)SCF (some centres not stated) [fluticasone furoate DPI, GSK]	inactive: -1.01	–	inactive: -1.06
CCN1CCN(C(=O)N[C@@H](C(=O)N[C@]2(OC)C(=O)N3C(C(=O)O)=C(CSc4nnnn4C)CS[C@@H]32)[C@H](C)O)C(=O)C1=O [cefbuperazone]	inactive: -0.96	inactive: -0.78	inactive: -0.293
COc1c(C(O)c2ncc([N+](=O)[O-])n2C)cccc1C(C)(C)C (configuration not stated)	inactive: -0.805	inactive: -1.65	inactive: -0.567
CC(C)=CCC/C(C)=C/CC/C(C)=C/CC/C(C)=C/CCC(=O)N1CCN(C)CC1	inactive: -1.36	inactive: -0.231	inactive: 1.8
Cc1ccnc(NC(=O)C(C)c2cccc(C(=O)c3ccccc3)c2)c1 (configuration not stated) [piketoprofen]	inactive: -2.62	inactive: 0.896	inactive: 1.23
O=C(Nc1cnc(-c2ccncc2F)c(-c2cccnc2)n1)C1CC1	inactive: -0.0601	inactive: -0.476	inactive: -0.702
COc1ccc(Cl)cc1-c1cc(=O)[nH]c(=S)n1CC(N)=O	inactive: 1.12	inactive: -0.723	inactive: 0.622
COc1cc(CNC(=O)CCCC/C=C/C(C)C)ccc1O [civamide]	–	inactive: -1.24	–
COc1cc(CNC(=O)CCCC/C=C/C(C)C)ccc1O [Capsaicin]	inactive: 0.568	–	inactive: 1.13
O=C(N[C@@H]1c2ccccc2C[C@@H]1c1ccc(O)cc1)C(c1ccccc1)c1ccccc1	inactive: -0.889	inactive: 2.27	inactive: 0.557
CNC(=O)c1c(-c2ccc(F)cc2)oc2cc(N(CCO)S(C)(=O)=O)c(C3CC3)cc12 [nesbuvir]	inactive: -1.31	inactive: -1.04	inactive: 0.616
CCN/C(=N\S(=O)(=O)c1ccc2c(c1)CCN2C(C)=O)N1CC(CC)C=N1 (configuration not stated)	inactive: -2.22	inactive: -0.691	inactive: -0.588
COc1cc2c(-c3ccc4c(c3)OCO4)c(C(=O)O)n(Cc3ccc4c(c3)OCO4)c2cc1OCc1ccccc1	inactive: -1.89	inactive: -0.417	inactive: -0.359
CCOc1ccc2c(c1)NCC2(C)C	inactive: -0.0517	inactive: -0.485	inactive: -0.164
CN1CCN(C(=O)c2cccc(-c3nc(N)nc(-c4ccccc4O)n3)c2)CC1	–	inactive: -0.881	–
Cc1cnc(C(=O)N[C@@H]2CCCCC/C=C\[C@@H]3CC3(C(=O)NS(=O)(=O)C3CC3)NC(=O)[C@@H]3CC(Oc4nc5ccccc5c5ccccc45)CN3C2=O)cn1 (some centres not stated) [Paritaprevir]	inactive: -1.32	inactive: -0.366	inactive: -0.00251
O=C(O)c1ccccc1OS(=O)(=O)[O-]	inactive: -1.09	inactive: -1.88	inactive: -0.518
CC=CC(=O)N(CCC)C(CC)C(=O)N(C)C (configuration not stated)	inactive: -0.934	inactive: -0.887	inactive: -0.226
O=C(O)Cc1csc(/N=C2\SC[C@@H]3Cc4ccccc4CN23)n1	inactive: -1.71	inactive: -0.0557	inactive: -0.00585
COc1cc(CN2CCCCC23Cc2ccccc2CNC3=O)cc(OC)c1 (configuration not stated)	inactive: -0.561	–	inactive: 0.462
